Our source for the binding values is paper doi:10.1101/2019.12.26.888776.

Sequences of proteins named here, by UniProt entry; tags and fusion partners are left off.
UniProt Q62406: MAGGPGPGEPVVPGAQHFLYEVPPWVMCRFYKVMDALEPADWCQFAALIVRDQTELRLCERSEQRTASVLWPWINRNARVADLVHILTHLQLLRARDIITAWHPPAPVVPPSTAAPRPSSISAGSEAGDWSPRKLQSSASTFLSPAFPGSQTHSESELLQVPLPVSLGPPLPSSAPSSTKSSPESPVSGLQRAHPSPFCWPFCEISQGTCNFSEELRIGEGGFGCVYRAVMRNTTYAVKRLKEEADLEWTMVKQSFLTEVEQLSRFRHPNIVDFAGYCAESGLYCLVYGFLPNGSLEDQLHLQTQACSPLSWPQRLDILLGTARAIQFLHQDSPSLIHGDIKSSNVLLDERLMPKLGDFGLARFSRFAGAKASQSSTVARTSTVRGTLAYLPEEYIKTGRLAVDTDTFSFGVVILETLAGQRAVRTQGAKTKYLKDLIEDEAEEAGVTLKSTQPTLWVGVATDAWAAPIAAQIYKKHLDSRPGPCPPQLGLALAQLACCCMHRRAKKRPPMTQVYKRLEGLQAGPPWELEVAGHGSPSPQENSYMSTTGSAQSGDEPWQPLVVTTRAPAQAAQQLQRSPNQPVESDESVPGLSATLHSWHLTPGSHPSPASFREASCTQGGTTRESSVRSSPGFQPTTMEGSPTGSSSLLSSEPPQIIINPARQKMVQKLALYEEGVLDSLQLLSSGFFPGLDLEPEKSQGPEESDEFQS
UniProt Q8R4B8: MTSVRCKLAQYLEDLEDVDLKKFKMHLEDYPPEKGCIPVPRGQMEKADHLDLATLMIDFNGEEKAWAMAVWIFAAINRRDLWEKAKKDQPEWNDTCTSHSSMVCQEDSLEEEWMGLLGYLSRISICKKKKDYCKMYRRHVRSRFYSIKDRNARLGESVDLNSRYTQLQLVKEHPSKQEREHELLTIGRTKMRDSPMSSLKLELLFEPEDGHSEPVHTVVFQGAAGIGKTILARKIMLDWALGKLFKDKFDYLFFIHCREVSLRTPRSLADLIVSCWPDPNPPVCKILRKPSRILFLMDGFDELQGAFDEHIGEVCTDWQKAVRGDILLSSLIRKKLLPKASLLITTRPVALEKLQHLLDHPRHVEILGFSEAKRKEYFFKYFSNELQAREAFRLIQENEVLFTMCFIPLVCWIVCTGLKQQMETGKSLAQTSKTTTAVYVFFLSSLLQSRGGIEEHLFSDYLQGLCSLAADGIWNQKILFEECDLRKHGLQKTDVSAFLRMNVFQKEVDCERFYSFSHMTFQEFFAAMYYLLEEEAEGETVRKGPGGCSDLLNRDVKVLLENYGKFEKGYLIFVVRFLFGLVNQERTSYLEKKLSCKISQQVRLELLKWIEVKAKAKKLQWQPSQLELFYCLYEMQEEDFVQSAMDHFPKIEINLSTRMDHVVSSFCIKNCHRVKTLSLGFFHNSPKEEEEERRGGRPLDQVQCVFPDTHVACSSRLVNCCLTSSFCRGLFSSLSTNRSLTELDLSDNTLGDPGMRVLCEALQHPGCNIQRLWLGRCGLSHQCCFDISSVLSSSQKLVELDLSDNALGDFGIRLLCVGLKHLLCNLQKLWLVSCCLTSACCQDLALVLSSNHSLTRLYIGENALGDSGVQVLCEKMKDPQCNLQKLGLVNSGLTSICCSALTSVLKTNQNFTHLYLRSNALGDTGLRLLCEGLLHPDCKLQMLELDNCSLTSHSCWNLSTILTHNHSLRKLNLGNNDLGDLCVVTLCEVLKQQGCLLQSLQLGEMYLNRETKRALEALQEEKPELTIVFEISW

Read-outs that look alike come from different tables or passages of the source. No constants are given. Whether binding was seen depends on the method and setting. Binding seen in cells or lysates may run through a third protein. Some entries that bind do so weakly or less than the wild type.

What all share (assay): proximity ligation
The target of experiment [1] is murine IRAK1 with a C-terminal fused mCherry (murine) (UniProt Q62406).
Experiment [2] has as its target T1, IRAK2 (mouse (endogenous in iBMDMs)) (UniProt Q8CFA1).
T1 sequence: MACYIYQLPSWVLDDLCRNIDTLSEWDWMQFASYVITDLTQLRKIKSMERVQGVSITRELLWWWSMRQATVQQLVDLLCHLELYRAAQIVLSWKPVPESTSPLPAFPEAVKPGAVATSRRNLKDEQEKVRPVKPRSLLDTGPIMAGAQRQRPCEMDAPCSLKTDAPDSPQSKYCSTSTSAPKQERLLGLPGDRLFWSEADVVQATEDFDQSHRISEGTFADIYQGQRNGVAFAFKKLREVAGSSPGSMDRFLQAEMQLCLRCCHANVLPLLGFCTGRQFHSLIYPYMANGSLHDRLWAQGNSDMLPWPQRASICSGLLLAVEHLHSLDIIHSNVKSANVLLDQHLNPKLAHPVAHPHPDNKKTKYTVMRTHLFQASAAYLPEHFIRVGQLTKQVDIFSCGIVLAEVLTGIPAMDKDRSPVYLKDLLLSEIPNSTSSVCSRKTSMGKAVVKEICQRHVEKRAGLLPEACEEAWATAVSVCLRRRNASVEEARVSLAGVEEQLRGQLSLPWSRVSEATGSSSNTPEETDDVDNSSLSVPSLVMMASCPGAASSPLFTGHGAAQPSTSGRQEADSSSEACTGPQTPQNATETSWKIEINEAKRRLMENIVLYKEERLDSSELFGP

For experiment [3], the target named is murine IRAK1 with a C-terminal fused mCherry (murine) (UniProt Q62406). This is another data set of the same source.

NLRP3 (from UniProt Q8R4B8 1-1033): the binding entry in experiment [1] was “binds”.

B1: TRAF6 (protein, UniProt P70196 1-530)
chain: MSLLNCENSCGSSQSSSDCCAAMAASCSAAVKDDSVSGSASTGNLSSSFMEEIQGYDVEFDPPLESKYECPICLMALREAVQTPCGHRFCKACIIKSIRDAGHKCPVDNEILLENQLFPDNFAKREILSLTVKCPNKGCLQKMELRHLEDHQVHCEFALVNCPQCQRPFQKCQVNTHIIEDCPRRQVSCVNCAVSMAYEEKEIHDQSCPLANIICEYCGTILIREQMPNHYDLDCPTAPIPCTFSVFGCHEKMQRNHLARHLQENTQLHMRLLAQAVHNVNLALRPCDAASPSRGCRPEDPNYEETIKQLESRLVRQDHQIRELTAKMETQSMYVGELKRTIRTLEDKVAEMEAQQCNGIYIWKIGNFGMHLKSQEEERPVVIHSPGFYTGRPGYKLCMRLHLQLPTAQRCANYISLFVHTMQGEYDSHLPWPFQGTIRLTILDQSEALIRQNHEEVMDAKPELLAFQRPTIPRNPKGFGYVTFMHLEALRQGTFIKDDTLLVRCEVSTRFDMGGLRKEGFQPRSTDAGV
B1: the binding entry in experiment [2] and in experiment [3] was “binds” each time.
